Test results as given in the supplement of paper PMC11546906.
Where a name gives a salt, the structure may show the parent alone. The list shows a part of the results. This data set is noisy: repeats of one test often differ as much as different tests do.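 FDA-approved drugs were each paired with colistin at one-eighth its MIC and screened against a multidrug-resistant, mcr-1-positive clinical E. coli isolate, with OD600 read after 24 h. Drug-free bacteria served as growth control, plain broth as blank. Combinations were active if OD600 dropped below 0.2.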

system: Escherichia coli 42 (mcr-1-positive clinical isolate); assay: OD600 after 24 h growth with compound plus colistin (absorbance units (OD600)); higher = more bacterial growth (less inhibition); details: first compound 25 µM; colistin concentration 0.5 ug/mL; incubation time 24 h; 37 °C

OD600, inactive:
O=C(CCCN1CC=C(n2c(=O)[nH]c3ccccc32)CC1)c1ccc(F)cc1 [Droperidol] + CCC(C)CCCC(=O)N[C@@H](CCN)C(=O)N[C@H](C(=O)N[C@@H](CCN)C(=O)N[C@H]1CCNC(=O)[C@H]([C@@H](C)O)NC(=O)[C@H](CCN)NC(=O)[C@H](CCN)NC(=O)[C@H](CC(C)C)NC(=O)[C@@H](CC(C)C)NC(=O)[C@H](CCN)NC1=O)[C@@H](C)O [colistin] 0.99, Cc1ccccc1C(=O)Nc1ccc(C(=O)N2CCCC(O)c3cc(Cl)ccc32)c(C)c1 (centres undefined) [Tolvaptan] + CCC(C)CCCC(=O)N[C@@H](CCN)C(=O)N[C@H](C(=O)N[C@@H](CCN)C(=O)N[C@H]1CCNC(=O)[C@H]([C@@H](C)O)NC(=O)[C@H](CCN)NC(=O)[C@H](CCN)NC(=O)[C@H](CC(C)C)NC(=O)[C@@H](CC(C)C)NC(=O)[C@H](CCN)NC1=O)[C@@H](C)O [colistin] 0.762, O=C(O)c1cc(-c2ccc(F)cc2F)ccc1O [Diflunisal] + CCC(C)CCCC(=O)N[C@@H](CCN)C(=O)N[C@H](C(=O)N[C@@H](CCN)C(=O)N[C@H]1CCNC(=O)[C@H]([C@@H](C)O)NC(=O)[C@H](CCN)NC(=O)[C@H](CCN)NC(=O)[C@H](CC(C)C)NC(=O)[C@@H](CC(C)C)NC(=O)[C@H](CCN)NC1=O)[C@@H](C)O [colistin] 0.931, CC[N+](CC)(CC)CCOc1cccc(OCC[N+](CC)(CC)CC)c1OCC[N+](CC)(CC)CC [Gallamine triethiodide] + CCC(C)CCCC(=O)N[C@@H](CCN)C(=O)N[C@H](C(=O)N[C@@H](CCN)C(=O)N[C@H]1CCNC(=O)[C@H]([C@@H](C)O)NC(=O)[C@H](CCN)NC(=O)[C@H](CCN)NC(=O)[C@H](CC(C)C)NC(=O)[C@@H](CC(C)C)NC(=O)[C@H](CCN)NC1=O)[C@@H](C)O [colistin] 1.07, CN1CCC(=C2c3ccccc3CCn3c(C=O)cnc32)CC1 [Alcaftadine] + CCC(C)CCCC(=O)N[C@@H](CCN)C(=O)N[C@H](C(=O)N[C@@H](CCN)C(=O)N[C@H]1CCNC(=O)[C@H]([C@@H](C)O)NC(=O)[C@H](CCN)NC(=O)[C@H](CCN)NC(=O)[C@H](CC(C)C)NC(=O)[C@@H](CC(C)C)NC(=O)[C@H](CCN)NC1=O)[C@@H](C)O [colistin] 0.955, O=C1O[C@H]([C@@H](O)CO)C(O)=C1O [L-Ascorbic acid] + CCC(C)CCCC(=O)N[C@@H](CCN)C(=O)N[C@H](C(=O)N[C@@H](CCN)C(=O)N[C@H]1CCNC(=O)[C@H]([C@@H](C)O)NC(=O)[C@H](CCN)NC(=O)[C@H](CCN)NC(=O)[C@H](CC(C)C)NC(=O)[C@@H](CC(C)C)NC(=O)[C@H](CCN)NC1=O)[C@@H](C)O [colistin] 0.653, O=c1[nH]cc(F)c(=O)[nH]1 [5-Fluorouracil] + CCC(C)CCCC(=O)N[C@@H](CCN)C(=O)N[C@H](C(=O)N[C@@H](CCN)C(=O)N[C@H]1CCNC(=O)[C@H]([C@@H](C)O)NC(=O)[C@H](CCN)NC(=O)[C@H](CCN)NC(=O)[C@H](CC(C)C)NC(=O)[C@@H](CC(C)C)NC(=O)[C@H](CCN)NC1=O)[C@@H](C)O [colistin] 0.712, Cc1cn([C@H]2C=C[C@@H](CO)O2)c(=O)[nH]c1=O [Stavudine] + CCC(C)CCCC(=O)N[C@@H](CCN)C(=O)N[C@H](C(=O)N[C@@H](CCN)C(=O)N[C@H]1CCNC(=O)[C@H]([C@@H](C)O)NC(=O)[C@H](CCN)NC(=O)[C@H](CCN)NC(=O)[C@H](CC(C)C)NC(=O)[C@@H](CC(C)C)NC(=O)[C@H](CCN)NC1=O)[C@@H](C)O [colistin] 0.685, Cc1ccccc1C(OCCN(C)C)c1ccccc1 (centres undefined) [Orphenadrine hydrochloride] + CCC(C)CCCC(=O)N[C@@H](CCN)C(=O)N[C@H](C(=O)N[C@@H](CCN)C(=O)N[C@H]1CCNC(=O)[C@H]([C@@H](C)O)NC(=O)[C@H](CCN)NC(=O)[C@H](CCN)NC(=O)[C@H](CC(C)C)NC(=O)[C@@H](CC(C)C)NC(=O)[C@H](CCN)NC1=O)[C@@H](C)O [colistin] 0.953
